Some of the results follow.
Assays:
Test in all cases: log2 fold change, soluble protein after heating vs DMSO (PISA); higher = thermal stabilisation; K562 cells, 10 uM, 30 min; active = over 0.2 and 3.5 SD of the protein, either way, in both replicates (recomputed)
[1] = compound: CC1=C(C=C(C=C1)NC(=O)C2=CC(=CC=C2)C(C)(C)C#N)NC3=CC4=C(C=C3)N=CN(C4=O)C
Outline: (§1)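 K562 cells at 2×10^6 cells/mL were treated for 30 min with 10 μM compound, and aliquots were heated for 3 min over 48°C-58°C before pooling. Extraction used PBS with 0.5% NP-40 at 4°C, and soluble protein was the supernatant after 21,000xg for 90 min, measured by TMTpro 16plex LC-MS/MS with channel sums equalised. Thermal stability values, relative to control samples and from duplicates, are log2 fold changes.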

Protein sequences, listed by entry. Tags and fused reporters are not part of them. Lines headed by an entry give the natural chain unless they say otherwise; changes in a name come on top.
UniProt Q9Y2X7: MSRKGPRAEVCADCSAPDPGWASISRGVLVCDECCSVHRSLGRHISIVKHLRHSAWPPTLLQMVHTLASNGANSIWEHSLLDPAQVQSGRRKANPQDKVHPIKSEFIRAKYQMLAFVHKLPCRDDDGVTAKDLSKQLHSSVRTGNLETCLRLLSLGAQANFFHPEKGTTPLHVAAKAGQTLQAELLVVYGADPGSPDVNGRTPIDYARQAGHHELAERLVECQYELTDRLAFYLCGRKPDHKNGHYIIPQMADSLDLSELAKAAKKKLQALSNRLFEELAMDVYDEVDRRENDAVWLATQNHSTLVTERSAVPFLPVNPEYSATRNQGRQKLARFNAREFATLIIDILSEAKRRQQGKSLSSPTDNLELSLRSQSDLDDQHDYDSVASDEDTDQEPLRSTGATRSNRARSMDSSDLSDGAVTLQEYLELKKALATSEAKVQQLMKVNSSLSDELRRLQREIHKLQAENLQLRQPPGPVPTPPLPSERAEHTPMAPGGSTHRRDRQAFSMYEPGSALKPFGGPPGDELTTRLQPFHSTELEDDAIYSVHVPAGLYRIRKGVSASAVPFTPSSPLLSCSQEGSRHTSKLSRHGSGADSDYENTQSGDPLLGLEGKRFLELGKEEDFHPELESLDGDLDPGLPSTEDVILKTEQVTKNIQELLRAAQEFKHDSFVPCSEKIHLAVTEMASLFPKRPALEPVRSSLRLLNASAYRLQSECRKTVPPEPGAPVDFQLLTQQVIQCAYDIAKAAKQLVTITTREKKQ
UniProt Q14749: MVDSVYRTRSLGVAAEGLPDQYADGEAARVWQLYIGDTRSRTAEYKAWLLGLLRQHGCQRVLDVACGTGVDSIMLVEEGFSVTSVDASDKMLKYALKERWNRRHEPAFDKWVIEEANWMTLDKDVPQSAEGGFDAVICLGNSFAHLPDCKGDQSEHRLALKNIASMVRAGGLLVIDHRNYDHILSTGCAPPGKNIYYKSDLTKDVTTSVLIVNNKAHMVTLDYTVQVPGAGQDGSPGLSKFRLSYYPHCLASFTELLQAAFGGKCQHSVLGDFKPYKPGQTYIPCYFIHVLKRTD
UniProt P36969, whole entry, looked up: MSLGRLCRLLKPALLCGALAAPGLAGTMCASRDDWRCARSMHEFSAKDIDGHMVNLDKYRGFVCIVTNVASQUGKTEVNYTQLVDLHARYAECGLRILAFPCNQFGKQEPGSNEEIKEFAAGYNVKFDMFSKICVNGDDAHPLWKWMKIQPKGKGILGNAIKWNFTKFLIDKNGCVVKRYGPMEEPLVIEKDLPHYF
UniProt Q9NZD2: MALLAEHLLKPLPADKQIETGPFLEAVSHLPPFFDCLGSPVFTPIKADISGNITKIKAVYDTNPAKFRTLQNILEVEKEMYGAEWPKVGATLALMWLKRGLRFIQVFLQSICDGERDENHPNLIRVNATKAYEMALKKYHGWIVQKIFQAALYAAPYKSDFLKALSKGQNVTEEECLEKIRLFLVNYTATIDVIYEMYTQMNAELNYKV
UniProt O14653: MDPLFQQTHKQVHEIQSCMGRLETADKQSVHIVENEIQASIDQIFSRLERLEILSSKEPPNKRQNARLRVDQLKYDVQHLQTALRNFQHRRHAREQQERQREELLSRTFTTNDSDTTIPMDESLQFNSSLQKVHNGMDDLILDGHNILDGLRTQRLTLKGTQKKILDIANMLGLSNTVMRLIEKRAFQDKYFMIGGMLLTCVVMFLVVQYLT
UniProt Q9H9Y4: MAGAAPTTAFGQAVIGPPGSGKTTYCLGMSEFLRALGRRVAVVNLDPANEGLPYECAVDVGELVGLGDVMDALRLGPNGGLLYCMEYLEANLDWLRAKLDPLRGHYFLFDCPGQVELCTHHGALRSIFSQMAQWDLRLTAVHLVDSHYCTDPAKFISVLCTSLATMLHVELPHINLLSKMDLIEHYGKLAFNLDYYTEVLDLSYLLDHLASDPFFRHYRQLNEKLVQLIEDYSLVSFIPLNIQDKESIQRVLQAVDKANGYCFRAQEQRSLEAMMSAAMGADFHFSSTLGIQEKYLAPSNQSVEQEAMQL
UniProt Q2TAP0: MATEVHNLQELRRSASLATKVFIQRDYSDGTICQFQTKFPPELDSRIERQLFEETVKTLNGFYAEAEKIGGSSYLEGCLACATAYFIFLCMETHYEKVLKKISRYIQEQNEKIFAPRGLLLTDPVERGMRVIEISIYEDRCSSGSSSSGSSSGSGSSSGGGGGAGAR
UniProt P21695: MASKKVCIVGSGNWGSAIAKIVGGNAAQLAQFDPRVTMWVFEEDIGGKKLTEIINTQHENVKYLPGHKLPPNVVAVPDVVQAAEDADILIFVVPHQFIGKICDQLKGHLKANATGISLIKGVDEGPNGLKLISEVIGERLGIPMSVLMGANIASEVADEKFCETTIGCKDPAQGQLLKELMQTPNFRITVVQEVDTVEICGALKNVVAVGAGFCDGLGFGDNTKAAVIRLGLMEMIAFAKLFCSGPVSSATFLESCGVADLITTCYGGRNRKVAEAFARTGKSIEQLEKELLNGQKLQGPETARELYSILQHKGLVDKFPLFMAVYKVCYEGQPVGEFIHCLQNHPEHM
UniProt P15104, whole entry, looked up: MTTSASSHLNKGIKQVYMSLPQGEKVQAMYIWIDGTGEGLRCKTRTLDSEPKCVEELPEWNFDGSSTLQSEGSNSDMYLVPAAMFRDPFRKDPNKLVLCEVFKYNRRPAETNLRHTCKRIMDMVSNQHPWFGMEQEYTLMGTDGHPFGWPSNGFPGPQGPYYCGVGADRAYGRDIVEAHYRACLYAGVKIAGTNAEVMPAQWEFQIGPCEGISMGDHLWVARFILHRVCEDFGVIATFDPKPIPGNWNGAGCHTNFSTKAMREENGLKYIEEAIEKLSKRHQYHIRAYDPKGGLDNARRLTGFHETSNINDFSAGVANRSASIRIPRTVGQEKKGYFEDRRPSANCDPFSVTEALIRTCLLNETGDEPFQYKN
UniProt P08754, whole entry, looked up: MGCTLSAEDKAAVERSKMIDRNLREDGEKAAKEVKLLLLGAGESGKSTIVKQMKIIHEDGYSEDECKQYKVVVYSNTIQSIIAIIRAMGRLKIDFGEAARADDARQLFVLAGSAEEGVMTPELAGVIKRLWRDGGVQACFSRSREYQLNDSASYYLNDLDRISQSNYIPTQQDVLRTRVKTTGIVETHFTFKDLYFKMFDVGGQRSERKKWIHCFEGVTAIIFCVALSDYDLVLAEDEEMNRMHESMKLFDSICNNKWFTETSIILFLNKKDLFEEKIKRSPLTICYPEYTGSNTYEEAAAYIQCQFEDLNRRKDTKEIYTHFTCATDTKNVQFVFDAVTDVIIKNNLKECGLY
UniProt Q86VQ1: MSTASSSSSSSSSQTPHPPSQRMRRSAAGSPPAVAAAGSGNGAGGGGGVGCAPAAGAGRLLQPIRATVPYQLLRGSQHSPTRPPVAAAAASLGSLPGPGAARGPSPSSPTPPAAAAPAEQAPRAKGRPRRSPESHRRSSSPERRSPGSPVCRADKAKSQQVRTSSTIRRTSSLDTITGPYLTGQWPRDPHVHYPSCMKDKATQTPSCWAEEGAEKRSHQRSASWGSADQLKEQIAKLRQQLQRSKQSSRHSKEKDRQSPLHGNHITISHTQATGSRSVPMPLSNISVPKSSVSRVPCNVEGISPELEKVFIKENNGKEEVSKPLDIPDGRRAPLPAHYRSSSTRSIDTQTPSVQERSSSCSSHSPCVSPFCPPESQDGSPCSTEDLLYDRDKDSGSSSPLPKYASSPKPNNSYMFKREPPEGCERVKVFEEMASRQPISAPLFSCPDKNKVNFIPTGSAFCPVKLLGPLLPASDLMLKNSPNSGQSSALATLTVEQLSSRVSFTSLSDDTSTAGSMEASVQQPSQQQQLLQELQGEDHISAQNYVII
UniProt P00367: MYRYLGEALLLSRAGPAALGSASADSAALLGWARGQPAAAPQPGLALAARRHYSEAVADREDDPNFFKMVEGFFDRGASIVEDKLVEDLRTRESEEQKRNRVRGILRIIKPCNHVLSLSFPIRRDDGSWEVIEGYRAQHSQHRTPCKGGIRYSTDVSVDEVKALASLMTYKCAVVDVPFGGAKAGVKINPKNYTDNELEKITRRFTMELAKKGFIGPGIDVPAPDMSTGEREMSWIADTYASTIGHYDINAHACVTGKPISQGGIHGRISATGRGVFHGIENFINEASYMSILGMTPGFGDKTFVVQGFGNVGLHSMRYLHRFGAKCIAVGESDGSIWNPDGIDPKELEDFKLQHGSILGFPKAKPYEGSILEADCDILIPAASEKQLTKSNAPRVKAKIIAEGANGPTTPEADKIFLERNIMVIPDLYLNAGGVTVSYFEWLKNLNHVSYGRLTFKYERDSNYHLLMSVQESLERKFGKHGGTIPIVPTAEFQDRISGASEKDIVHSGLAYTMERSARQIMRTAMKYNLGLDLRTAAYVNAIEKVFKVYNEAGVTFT
UniProt O75420: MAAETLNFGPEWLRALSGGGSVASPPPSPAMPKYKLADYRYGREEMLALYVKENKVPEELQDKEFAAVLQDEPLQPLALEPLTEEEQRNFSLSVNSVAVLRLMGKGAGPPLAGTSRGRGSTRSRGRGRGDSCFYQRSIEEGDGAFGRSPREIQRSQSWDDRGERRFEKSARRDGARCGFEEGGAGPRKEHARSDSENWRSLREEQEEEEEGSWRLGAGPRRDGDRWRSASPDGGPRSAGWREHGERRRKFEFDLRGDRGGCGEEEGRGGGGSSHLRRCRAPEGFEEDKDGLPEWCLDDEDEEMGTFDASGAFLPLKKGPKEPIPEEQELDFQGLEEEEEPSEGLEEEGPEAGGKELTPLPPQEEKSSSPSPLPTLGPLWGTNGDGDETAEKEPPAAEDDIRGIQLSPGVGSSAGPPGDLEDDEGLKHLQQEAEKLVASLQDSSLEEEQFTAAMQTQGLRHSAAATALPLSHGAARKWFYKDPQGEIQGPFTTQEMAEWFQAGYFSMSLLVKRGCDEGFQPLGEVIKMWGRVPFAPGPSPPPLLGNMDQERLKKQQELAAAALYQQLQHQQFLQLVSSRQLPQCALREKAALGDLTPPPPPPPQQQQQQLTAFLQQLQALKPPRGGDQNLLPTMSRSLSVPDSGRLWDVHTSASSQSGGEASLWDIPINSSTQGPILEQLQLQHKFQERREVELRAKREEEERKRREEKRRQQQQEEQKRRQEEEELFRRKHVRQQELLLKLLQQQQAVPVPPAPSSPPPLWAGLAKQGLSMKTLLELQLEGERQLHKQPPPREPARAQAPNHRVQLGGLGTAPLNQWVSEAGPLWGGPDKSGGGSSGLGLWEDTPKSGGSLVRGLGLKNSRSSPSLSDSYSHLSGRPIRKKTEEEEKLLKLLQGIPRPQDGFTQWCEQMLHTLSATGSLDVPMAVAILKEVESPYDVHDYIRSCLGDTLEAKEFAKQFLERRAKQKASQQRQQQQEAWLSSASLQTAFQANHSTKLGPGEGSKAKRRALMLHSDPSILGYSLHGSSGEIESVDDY
UniProt P15586: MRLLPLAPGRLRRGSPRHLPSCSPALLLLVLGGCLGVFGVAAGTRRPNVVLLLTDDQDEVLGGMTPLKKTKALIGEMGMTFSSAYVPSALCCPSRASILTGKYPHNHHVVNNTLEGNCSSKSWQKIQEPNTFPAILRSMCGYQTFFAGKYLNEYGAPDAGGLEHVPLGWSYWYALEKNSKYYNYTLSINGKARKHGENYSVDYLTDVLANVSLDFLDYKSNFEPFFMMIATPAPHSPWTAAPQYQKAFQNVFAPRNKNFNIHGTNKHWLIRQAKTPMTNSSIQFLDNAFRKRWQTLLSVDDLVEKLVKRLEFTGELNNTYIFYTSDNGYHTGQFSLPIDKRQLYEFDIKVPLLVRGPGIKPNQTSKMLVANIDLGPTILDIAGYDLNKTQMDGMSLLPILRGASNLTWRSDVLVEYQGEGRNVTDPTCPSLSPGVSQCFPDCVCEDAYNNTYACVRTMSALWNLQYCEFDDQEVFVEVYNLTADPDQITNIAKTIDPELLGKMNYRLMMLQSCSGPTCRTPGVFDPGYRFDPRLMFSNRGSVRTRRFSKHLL
UniProt O76003: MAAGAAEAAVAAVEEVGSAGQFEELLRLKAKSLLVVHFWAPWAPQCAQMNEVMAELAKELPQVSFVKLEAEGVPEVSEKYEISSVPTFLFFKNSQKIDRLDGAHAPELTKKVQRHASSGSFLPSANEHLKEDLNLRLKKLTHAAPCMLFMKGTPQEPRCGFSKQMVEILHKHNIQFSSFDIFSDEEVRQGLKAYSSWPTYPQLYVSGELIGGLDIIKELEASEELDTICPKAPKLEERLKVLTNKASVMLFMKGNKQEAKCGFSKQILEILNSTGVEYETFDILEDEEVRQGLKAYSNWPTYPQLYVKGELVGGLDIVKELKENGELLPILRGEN
UniProt Q9H4A6: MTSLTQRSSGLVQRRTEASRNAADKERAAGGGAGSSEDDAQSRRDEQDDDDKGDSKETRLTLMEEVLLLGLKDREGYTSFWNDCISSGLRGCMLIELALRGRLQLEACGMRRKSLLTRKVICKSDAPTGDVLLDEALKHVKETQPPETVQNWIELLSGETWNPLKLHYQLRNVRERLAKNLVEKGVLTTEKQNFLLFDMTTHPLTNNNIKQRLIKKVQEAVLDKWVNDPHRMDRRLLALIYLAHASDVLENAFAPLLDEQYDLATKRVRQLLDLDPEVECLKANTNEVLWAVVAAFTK

[2] = compound: CC1=C(C=C(C=C1)NC(=O)C2=CC(=CC=C2)N(C)C)NC(=O)C3=CC=C(C=C3)O
Outline: as §1

[3] = compound: CC1=CC=C(C=C1)SC2=C3C=C(SC3=CN=C2)C(=O)N
Outline: as §1

[4] = compound: CC1=NC(=CC=C1)C2=C(N=C(N2)C(C)(C)C)C3=CC4=NC=CN=C4C=C3
Outline: as §1

Nexturastat A = compound: CCCCN(Cc1ccc(C(=O)NO)cc1)C(=O)Nc1ccccc1 [Nexturastat A]
Outline: as §1

[5] = compound: CCCS(=O)(=O)Nc1ccc(F)c(C(=O)c2c[nH]c3ncc(Cl)cc23)c1F
Outline: as §1

[6] = compound: CCCc1cc(C)[nH]c(=O)c1CNC(=O)c1cc(-c2ccnc(N3CCN(C)CC3)c2)cc2c1cnn2C(C)C
Outline: as §1

[7] = compound: CC[C@@H]1C(=O)N(C)c2cnc(Nc3ccc(C(=O)NC4CCN(C)CC4)cc3OC)nc2N1C1CCCC1
Outline: as §1

volasertib = compound: CC[C@@H]1C(=O)N(C)c2cnc(Nc3ccc(C(=O)N[C@H]4CC[C@H](N5CCN(CC6CC6)CC5)CC4)cc3OC)nc2N1C(C)C [volasertib]
Outline: as §1

epoxomicin = compound: CC[C@H](C)[C@@H](C(=O)N[C@@H]([C@@H](C)O)C(=O)N[C@@H](CC(C)C)C(=O)[C@]1(CO1)C)NC(=O)[C@H]([C@@H](C)CC)N(C)C(=O)C [epoxomicin]
Outline: as §1

[8] = compound: CN1C2=C(C3=C1C(=O)N(N=C3)CC4=CC(=CC=C4)N)SC(=C2)S(=O)C
Outline: as §1

vemurafenib = compound: CCCS(=O)(=O)Nc1ccc(F)c(C(=O)c2c[nH]c3ncc(-c4ccc(Cl)cc4)cc23)c1F [vemurafenib]
Outline: as §1

givinostat = compound: CCN(CC)Cc1ccc2cc(COC(=O)Nc3ccc(C(=O)NO)cc3)ccc2c1 [givinostat]
Outline: as §1

barasertib = compound: CCN(CCCOc1ccc2c(Nc3cc(CC(=O)Nc4cccc(F)c4)[nH]n3)ncnc2c1)CCOP(=O)(O)O [barasertib]
Outline: as §1

[9] = compound: CC[C@H](C)N1C=C(C2=C(C=C(C=C21)C3=CN=C(C=C3)N4CCNCC4)C(=O)NCC5=C(C=C(NC5=O)C)C)C
Outline: as §1

[10] = compound: CCn1c(C(=O)N(C2CC2)C2CC2)cc2c3c(ncn3C)c(Nc3cc(C)n(C)n3)nc21
Outline: as §1

[11] = compound: CCn1cc(-c2ccnc3[nH]c(-c4cccc(CN(C)C)c4)cc23)c(-c2ccc(NC(=O)N(C)C)cc2)n1
Outline: as §1

[12] = compound: CN(C)CC(=O)Nc1ccc2[nH]c(=O)c3ccccc3c2c1
Outline: as §1

rosiglitazone = compound: CN(CCOC1=CC=C(C=C1)C[C@H]2C(=O)NC(=O)S2)C3=CC=CC=N3 (racemic) [rosiglitazone]
Outline: as §1

[13] = compound: CN1CCC(CNc2ccc3ncc(-c4cccc(OC(F)(F)F)c4)n3n2)CC1
Outline: as §1

Measured: log2 fold change

GIT1 isoform 3 (UniProt Q9Y2X7)
inactive: [1] 0.052 | [2] 0.023 | [3] -0.024 | [4] -0.158 | Nexturastat A 0.14 | [5] -0.032 | [6] 0.081 | [7] -0.27 | volasertib -0.241 | epoxomicin 0.04 | [8] 0.102

GNMT (UniProt Q14749)
inactive: [1] -0.024 | [2] -0.047 | [3] 0.107 | vemurafenib 0.144 | [5] -0.109 | [6] -0.037 | givinostat -0.191 | barasertib -0.044 | [7] 0.125 | volasertib 0.246 | [9] 0.099 | [10] 0.107 | [11] 0.166 | [12] -0.09 | rosiglitazone 0.204 | [8] 0.178 | [13] -0.104

GPX4 (UniProt P36969)
inactive: [1] -0.005 | [2] -0.068 | [3] 0.095 | [4] 0.06 | Nexturastat A -0.151 | vemurafenib -0.019 | [5] 0.005 | [6] -0.027 | barasertib -0.012 | [7] 0.019 | volasertib 0.016 | [9] 0.012 | epoxomicin 0.021 | [11] -0.025 | [12] 0.009 | [8] -0.061 | [13] 0.067
active: givinostat -0.451

GLTP (UniProt Q9NZD2)
inactive: [1] 0.135 | [2] -0.064 | [3] 0.037 | vemurafenib 0.031 | [5] -0.062 | [6] -0.052 | givinostat -0.04 | barasertib 0.099 | [7] 0.064 | volasertib -0.021 | [9] 0.012 | [10] -0.019 | [11] 0.023 | [12] 0.006 | rosiglitazone -0.125 | [13] 0.203

GOSR2 isoform 2 (UniProt O14653)
inactive: [1] -0.017 | [2] -0.058 | [3] 0.135 | [4] 0.073 | vemurafenib 0.034 | [5] 0.113 | [6] -0.044 | givinostat 0.014 | barasertib 0.029 | [7] -0.065 | volasertib -0.144 | [9] 0.034 | [10] -0.043 | [11] -0.075 | [12] -0.006 | rosiglitazone 0.003 | [8] -0.183 | [13] -0.038

GPN2 (UniProt Q9H9Y4)
inactive: [1] -0.074 | [2] -0.028 | [3] 0.009 | [4] -0.02 | vemurafenib -0.032 | [5] -0.047 | [6] -0.114 | givinostat -0.037 | barasertib -0.001 | [7] 0.055 | volasertib 0.093 | [9] -0.057 | [10] -0.041 | [11] -0.078 | [12] 0.044 | rosiglitazone -0.016 | [8] -0.047 | [13] -0.025

GOLGA7B (UniProt Q2TAP0)
inactive: [1] -0.017 | [2] -0.1 | [3] 0.049 | [4] -0.061 | vemurafenib -0.058 | [5] 0.028 | [6] -0.055 | givinostat -0.028 | barasertib -0.201 | [7] 0.077 | volasertib 0.153 | [9] -0.031 | [10] 0.144 | [12] -0.066 | rosiglitazone -0.137 | [8] -0.004

GPD1 (UniProt P21695)
active: Nexturastat A 0.653
inactive: [1] 0.011 | [2] -0.046 | [3] 0.021 | vemurafenib 0.02 | [5] -0.042 | [6] -0.34 | givinostat 0.514 | barasertib 0.062 | volasertib -0.161 | [9] 0 | epoxomicin -0.205 | [11] -0.011 | [12] -0.045 | [8] -0.126 | [13] -0.183

GLUL (UniProt P15104)
inactive: [1] -0.008 | [2] -0.003 | [3] 0.055 | [4] -0.013 | Nexturastat A -0.02 | vemurafenib -0.04 | [5] -0.084 | [6] -0.016 | givinostat -0.082 | barasertib 0.004 | [7] 0.049 | volasertib 0.113 | [9] -0.041 | epoxomicin 0.081 | [11] 0.014 | [12] -0.032 | [8] -0.032 | [13] 0.017

GNAI3 (UniProt P08754)
inactive: [1] 0.125 | [2] -0.012 | [3] -0.07 | [4] -0.021 | Nexturastat A 0.072 | vemurafenib 0.037 | [5] -0.025 | [6] 0.069 | barasertib 0 | [7] 0.089 | volasertib 0.147 | [9] -0.011 | epoxomicin 0.014 | [11] -0.071 | [12] -0.012 | [8] -0.046 | [13] 0.075
active: givinostat -0.263

GLCCI1 (UniProt Q86VQ1)
active: [13] -0.328
inactive: [1] 0.037 | [2] 0.104 | [3] -0.029 | [4] 0.028 | Nexturastat A 0 | vemurafenib -0.007 | [5] -0.035 | [6] 0.033 | givinostat 0.045 | barasertib -0.075 | [7] -0.048 | volasertib 0.108 | [9] 0.15 | epoxomicin -0.022 | [11] 0.088 | [12] -0.035 | [8] -0.023

GLUD1 (UniProt P00367)
inactive: [1] 0.179 | [2] -0.007 | [3] -0.054 | [4] -0.011 | Nexturastat A -0.063 | vemurafenib -0.012 | [5] -0.02 | [6] 0.136 | givinostat -0.062 | barasertib -0.007 | [7] 0.146 | volasertib 0.25 | [9] 0.034 | epoxomicin 0.024 | [11] -0.054 | [12] 0 | [8] -0.128 | [13] 0.102

2 records picked at random from those above:
GPD1 (UniProt P21695)
active: Nexturastat A 0.653
inactive: [1] 0.011 | [2] -0.046 | [3] 0.021 | vemurafenib 0.02 | [5] -0.042 | [6] -0.34 | givinostat 0.514 | barasertib 0.062 | volasertib -0.161 | [9] 0 | epoxomicin -0.205 | [11] -0.011 | [12] -0.045 | [8] -0.126 | [13] -0.183

GLCCI1 (UniProt Q86VQ1)
active: [13] -0.328
inactive: [1] 0.037 | [2] 0.104 | [3] -0.029 | [4] 0.028 | Nexturastat A 0 | vemurafenib -0.007 | [5] -0.035 | [6] 0.033 | givinostat 0.045 | barasertib -0.075 | [7] -0.048 | volasertib 0.108 | [9] 0.15 | epoxomicin -0.022 | [11] 0.088 | [12] -0.035 | [8] -0.023

Next part.

GIGYF1 (UniProt O75420)
inactive: [1] -0.103 | [2] 0.036 | [3] -0.002 | [4] 0.05 | Nexturastat A 0.128 | [5] -0.166 | volasertib -0.057 | epoxomicin 0.009 | [11] -0.106 | [13] -0.141

GNS (UniProt P15586)
active: [7] -0.272 | [13] -0.408
inactive: [1] -0.021 | [2] 0.112 | [3] 0.044 | [4] 0.026 | Nexturastat A -0.03 | vemurafenib 0.023 | [5] -0.005 | [6] 0.003 | givinostat 0.011 | barasertib -0.004 | volasertib -0.181 | [9] -0.045 | epoxomicin -0.012 | [11] -0.003 | [12] -0.007 | [8] -0.016

GOLM1 (UniProt Q8NBJ4)
inactive: [1] -0.118 | [2] 0.142 | [3] 0.086 | vemurafenib 0.045 | [5] -0.017 | [6] -0.311 | givinostat 0.086 | barasertib 0.144 | [7] -0.04 | volasertib 0.032 | [9] -0.175 | [10] 0.062 | [12] -0.072 | rosiglitazone 0.036

GNG5 (UniProt P63218)
active: epoxomicin 0.556
inactive: [1] 0.147 | [2] -0.17 | [3] -0.02 | [4] 0.074 | Nexturastat A 0.068 | vemurafenib 0.038 | [5] 0.004 | [6] 0.022 | givinostat -0.063 | barasertib -0.064 | [7] 0.105 | volasertib 0.033 | [9] -0.117 | [11] 0.004 | [12] -0.07 | [8] -0.014 | [13] 0.144

GLRX3 (UniProt O76003)
active: volasertib -0.331
inactive: [1] 0.007 | [2] -0.033 | [3] 0.02 | [4] 0.028 | Nexturastat A -0.049 | vemurafenib 0.024 | [5] 0.139 | [6] 0.014 | givinostat 0.01 | barasertib 0.054 | [7] -0.164 | [9] 0.066 | epoxomicin 0.018 | [11] -0.025 | [12] -0.011 | [8] -0.03 | [13] -0.03

GOPC (UniProt Q9HD26)
inactive: [1] 0.207 | [2] 0.018 | [3] -0.051 | [4] -0.066 | Nexturastat A 0.131 | vemurafenib 0.094 | [5] -0.128 | [6] 0.244 | givinostat 0.152 | barasertib -0.116 | volasertib -0.015 | [9] 0.022 | epoxomicin -0.053 | [11] 0.149 | [12] 0.056 | [8] 0.153 | [13] 0.485

GOLPH3 (UniProt Q9H4A6)
active: [13] 0.236
inactive: [1] 0.074 | [2] -0.031 | [3] -0.017 | [4] 0.022 | Nexturastat A -0.017 | vemurafenib 0.015 | [5] 0.058 | [6] -0.011 | givinostat -0.007 | barasertib 0.023 | [7] 0.029 | volasertib 0.008 | [9] 0.086 | epoxomicin 0.084 | [11] -0.059 | [12] -0.001 | [8] -0.075
